The list shows a part of the results, in another mix than the full data.
compound: COC(=O)C#Cc1ccccc1 [methyl 3-phenylpropiolate]; experiment: log2 ratio of iodoacetamide-alkyne labeling of the cysteine site, DMSO over compound (competition); higher = stronger covalent engagement of the cysteine by the compound, active = 1 or more; details: 500 µM; treatment time 1 h; system: HEK293T cell lysate
Outline: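 HEK293T lysate (2 mg/mL) was incubated with electrophile (500 µM) or vehicle for 1 h at ambient temperature and then with iodoacetamide alkyne for 1 h. Labelled proteins were clicked to sCIP-TMT reagents, pooled, digested, enriched on streptavidin and measured by Orbitrap Eclipse LC-MS/MS with FAIMS, with FragPipe quantification. The per-cysteine log2 competition ratio is mean control-channel reporter intensity over mean compound-channel reporter intensity. Across three replicates with duplicate channels, cysteines quantified in only one replicate were excluded.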

Amino acid sequences for entries named in this document (tags omitted). A change or cut given only in a name is not applied to a line headed by its entry.
UniProt Q9NRG9: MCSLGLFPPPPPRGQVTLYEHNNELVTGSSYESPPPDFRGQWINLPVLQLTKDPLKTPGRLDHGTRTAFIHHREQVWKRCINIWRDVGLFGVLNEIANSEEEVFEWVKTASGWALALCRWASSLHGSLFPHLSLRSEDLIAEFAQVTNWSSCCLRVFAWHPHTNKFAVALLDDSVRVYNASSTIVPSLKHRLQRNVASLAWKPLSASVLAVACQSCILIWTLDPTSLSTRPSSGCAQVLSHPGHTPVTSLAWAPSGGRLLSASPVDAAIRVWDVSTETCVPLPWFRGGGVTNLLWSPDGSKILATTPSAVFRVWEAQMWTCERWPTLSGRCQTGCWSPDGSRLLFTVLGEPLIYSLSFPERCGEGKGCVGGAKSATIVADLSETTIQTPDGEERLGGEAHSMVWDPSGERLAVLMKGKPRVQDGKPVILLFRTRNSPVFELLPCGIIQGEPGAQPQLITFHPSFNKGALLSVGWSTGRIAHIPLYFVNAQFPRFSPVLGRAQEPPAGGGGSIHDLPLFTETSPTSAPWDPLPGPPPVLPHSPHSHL
UniProt Q9HC36: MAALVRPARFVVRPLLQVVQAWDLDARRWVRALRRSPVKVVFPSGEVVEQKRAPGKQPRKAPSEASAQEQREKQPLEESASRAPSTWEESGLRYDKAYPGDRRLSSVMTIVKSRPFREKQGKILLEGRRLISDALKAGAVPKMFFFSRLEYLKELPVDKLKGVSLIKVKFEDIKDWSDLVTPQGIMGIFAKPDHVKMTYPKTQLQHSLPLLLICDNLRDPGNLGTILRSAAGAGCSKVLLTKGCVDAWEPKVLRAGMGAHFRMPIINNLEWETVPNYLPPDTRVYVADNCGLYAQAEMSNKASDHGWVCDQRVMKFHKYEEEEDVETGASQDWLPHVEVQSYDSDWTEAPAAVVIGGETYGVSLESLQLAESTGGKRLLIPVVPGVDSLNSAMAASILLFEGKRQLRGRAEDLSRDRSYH
UniProt Q9NR31: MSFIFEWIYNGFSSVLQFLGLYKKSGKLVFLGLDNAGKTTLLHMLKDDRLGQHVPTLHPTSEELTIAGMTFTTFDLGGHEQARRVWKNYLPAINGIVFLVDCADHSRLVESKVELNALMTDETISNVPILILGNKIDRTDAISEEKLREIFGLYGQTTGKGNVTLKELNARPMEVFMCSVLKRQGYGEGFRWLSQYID
UniProt Q9NQ29: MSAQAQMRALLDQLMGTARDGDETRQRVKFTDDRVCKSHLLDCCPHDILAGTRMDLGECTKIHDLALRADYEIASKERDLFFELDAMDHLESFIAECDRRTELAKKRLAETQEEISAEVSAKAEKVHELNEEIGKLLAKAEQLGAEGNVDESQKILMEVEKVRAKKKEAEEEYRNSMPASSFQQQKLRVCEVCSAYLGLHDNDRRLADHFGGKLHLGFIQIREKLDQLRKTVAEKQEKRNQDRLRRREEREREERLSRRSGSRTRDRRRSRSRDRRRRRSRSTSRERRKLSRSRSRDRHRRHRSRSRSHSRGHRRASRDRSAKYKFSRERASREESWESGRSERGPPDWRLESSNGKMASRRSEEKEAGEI
UniProt Q9HCG7: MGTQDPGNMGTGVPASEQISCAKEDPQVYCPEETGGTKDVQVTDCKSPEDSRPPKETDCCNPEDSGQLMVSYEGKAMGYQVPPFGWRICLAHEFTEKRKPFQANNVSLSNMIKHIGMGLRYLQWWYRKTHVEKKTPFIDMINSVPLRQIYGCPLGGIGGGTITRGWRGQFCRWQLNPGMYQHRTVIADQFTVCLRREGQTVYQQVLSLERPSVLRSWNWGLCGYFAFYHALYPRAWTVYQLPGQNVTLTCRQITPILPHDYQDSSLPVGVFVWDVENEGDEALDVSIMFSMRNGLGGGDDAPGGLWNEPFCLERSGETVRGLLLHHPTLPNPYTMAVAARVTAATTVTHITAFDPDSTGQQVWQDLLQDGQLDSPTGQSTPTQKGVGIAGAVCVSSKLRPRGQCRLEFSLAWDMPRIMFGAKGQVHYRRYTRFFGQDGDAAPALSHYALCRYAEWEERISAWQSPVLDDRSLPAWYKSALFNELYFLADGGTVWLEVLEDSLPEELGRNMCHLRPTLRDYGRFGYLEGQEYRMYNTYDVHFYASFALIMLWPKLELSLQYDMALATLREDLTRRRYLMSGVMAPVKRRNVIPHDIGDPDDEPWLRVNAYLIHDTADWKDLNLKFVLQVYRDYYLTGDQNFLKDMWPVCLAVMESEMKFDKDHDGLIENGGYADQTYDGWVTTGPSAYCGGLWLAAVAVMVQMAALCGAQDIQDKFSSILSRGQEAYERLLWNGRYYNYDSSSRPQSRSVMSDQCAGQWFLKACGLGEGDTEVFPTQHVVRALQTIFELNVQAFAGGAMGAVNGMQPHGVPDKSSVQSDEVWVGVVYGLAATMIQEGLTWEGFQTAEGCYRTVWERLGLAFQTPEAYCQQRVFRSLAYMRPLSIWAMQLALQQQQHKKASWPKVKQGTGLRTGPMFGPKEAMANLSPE
UniProt Q9H9F9, whole entry: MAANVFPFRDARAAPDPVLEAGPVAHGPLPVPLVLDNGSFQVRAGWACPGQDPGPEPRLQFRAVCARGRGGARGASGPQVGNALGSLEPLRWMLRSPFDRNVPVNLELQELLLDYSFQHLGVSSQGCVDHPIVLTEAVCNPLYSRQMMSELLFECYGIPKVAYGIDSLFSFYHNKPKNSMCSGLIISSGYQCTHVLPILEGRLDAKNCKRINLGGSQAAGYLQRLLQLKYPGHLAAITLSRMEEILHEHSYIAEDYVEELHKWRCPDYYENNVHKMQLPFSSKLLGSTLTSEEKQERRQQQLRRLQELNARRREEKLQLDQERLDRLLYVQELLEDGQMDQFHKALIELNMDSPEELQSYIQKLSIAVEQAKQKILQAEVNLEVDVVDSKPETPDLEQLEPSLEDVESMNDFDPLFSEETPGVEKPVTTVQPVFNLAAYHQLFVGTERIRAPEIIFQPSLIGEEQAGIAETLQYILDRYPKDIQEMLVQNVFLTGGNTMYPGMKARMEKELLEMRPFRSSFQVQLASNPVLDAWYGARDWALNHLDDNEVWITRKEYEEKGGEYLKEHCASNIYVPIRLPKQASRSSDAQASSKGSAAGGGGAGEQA
UniProt Q9HAP2: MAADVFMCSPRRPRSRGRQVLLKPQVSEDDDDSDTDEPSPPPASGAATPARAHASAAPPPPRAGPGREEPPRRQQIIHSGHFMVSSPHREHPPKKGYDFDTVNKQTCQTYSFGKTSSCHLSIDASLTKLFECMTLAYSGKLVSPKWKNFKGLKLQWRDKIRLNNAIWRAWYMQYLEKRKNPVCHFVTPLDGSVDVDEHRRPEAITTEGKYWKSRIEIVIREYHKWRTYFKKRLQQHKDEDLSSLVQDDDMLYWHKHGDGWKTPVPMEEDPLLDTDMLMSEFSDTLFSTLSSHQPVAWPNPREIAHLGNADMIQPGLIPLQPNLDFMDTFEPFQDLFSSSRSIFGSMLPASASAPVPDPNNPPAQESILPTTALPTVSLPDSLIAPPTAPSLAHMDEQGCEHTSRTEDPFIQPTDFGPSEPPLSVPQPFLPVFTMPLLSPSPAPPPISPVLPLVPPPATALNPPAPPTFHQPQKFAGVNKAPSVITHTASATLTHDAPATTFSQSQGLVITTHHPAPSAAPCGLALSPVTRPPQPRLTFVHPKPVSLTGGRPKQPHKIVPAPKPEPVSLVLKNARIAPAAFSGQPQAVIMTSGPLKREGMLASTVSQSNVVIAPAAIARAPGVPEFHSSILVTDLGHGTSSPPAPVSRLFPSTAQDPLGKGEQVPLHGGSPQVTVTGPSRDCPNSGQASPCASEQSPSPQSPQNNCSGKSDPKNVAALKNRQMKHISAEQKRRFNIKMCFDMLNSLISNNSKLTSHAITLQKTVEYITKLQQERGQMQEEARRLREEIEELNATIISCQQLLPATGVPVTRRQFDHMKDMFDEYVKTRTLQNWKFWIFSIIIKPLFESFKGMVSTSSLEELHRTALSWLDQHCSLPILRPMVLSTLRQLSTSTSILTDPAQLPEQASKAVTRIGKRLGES
UniProt Q9H9L3: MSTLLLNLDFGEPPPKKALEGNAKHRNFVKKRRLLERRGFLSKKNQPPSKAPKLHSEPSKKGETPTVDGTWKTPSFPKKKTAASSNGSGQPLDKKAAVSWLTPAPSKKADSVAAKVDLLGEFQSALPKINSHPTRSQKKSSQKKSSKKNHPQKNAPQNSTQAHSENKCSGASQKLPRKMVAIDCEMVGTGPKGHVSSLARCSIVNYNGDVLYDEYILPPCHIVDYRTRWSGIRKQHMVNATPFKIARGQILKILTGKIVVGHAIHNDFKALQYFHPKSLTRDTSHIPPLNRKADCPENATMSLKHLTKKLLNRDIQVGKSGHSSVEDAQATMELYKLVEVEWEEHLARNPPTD
UniProt Q9NUP1: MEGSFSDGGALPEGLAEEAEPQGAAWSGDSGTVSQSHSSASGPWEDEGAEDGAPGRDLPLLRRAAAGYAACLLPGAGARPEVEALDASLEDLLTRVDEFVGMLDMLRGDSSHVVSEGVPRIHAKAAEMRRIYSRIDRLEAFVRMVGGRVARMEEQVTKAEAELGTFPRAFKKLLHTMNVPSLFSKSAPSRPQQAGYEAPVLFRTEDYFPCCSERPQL
UniProt Q9H7B4: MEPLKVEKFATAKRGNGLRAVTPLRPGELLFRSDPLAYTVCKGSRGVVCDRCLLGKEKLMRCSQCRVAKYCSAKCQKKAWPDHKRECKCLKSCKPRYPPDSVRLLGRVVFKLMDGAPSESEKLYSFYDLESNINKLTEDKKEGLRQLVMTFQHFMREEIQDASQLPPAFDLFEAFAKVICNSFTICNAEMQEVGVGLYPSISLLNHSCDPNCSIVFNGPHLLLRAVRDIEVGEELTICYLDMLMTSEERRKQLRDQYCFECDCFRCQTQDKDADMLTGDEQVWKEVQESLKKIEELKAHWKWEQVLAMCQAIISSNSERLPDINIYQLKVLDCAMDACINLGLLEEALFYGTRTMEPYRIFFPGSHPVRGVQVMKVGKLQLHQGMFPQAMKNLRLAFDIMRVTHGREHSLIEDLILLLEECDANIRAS
UniProt Q9NRX1: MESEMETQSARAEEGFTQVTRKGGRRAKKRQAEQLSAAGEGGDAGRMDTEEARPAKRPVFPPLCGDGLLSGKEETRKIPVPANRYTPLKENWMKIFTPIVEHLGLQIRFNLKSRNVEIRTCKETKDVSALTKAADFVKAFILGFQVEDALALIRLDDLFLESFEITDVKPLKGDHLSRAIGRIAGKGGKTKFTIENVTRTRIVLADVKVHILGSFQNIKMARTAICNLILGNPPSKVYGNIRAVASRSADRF
UniProt Q9H3U1: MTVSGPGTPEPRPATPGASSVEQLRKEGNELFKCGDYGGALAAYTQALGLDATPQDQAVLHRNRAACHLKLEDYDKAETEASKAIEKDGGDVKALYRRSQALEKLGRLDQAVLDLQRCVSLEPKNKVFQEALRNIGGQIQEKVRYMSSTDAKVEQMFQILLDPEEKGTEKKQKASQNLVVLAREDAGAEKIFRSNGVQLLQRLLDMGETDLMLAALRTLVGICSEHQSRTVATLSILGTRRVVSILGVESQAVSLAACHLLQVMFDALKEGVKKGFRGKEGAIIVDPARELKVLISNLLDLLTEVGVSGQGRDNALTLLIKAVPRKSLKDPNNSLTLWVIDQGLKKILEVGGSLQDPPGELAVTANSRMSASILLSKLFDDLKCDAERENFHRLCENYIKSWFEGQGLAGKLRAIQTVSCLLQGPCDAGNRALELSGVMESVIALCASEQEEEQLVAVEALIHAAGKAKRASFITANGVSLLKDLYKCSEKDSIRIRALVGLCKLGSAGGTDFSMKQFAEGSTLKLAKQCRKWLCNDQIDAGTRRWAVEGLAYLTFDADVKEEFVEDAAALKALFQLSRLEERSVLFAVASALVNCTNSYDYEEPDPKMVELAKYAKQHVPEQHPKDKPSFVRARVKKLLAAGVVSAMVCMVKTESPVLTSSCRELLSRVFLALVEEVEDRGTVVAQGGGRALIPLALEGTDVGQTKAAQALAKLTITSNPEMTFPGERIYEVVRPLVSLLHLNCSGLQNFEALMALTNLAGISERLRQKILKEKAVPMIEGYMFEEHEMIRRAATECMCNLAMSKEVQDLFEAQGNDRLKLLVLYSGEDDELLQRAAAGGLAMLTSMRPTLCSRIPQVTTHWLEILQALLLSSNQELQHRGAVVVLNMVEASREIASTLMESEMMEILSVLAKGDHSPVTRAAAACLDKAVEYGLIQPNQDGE
UniProt Q9NR56: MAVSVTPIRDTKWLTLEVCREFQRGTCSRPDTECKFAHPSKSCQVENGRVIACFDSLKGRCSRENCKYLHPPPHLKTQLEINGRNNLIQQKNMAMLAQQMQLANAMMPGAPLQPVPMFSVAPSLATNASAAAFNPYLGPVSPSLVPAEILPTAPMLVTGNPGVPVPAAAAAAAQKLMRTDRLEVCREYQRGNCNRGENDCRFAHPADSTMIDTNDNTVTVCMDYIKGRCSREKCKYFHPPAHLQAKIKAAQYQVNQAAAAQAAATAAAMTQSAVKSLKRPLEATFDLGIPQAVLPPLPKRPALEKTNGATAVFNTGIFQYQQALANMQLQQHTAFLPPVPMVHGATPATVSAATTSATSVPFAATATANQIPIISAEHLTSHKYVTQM

log2 ratio of iodoacetamide-alkyne labeling, inactive:
MOV10 C16 (UniProt Q9HCE1) 0.0189, AAAS C444 (UniProt Q9NRG9) -0.0404, UniProt Q9H871_C4 0.161, DDX31 C413 (UniProt Q9H8H2) -0.0577, UniProt Q9HC36_C290 0.36, SAR1A C102 (UniProt Q9NR31) -0.125, LUC7L C43 (UniProt Q9NQ29) 0.236, GBA2 C311 (UniProt Q9HCG7) 0.239, ACTR5 C48 (UniProt Q9H9F9) 0.121, MLXIP C738 (UniProt Q9HAP2) -0.0833, EXOSC4 C74 (UniProt Q9NPD3) 0.0424, ISG20L2 C220 (UniProt Q9H9L3) 0.104, UniProt Q9NUP1_C211 0.821, SMYD3 C421 (UniProt Q9H7B4) 0.00903, KLC4 C53 (UniProt Q9NSK0) 0.0545, WDR55 C306 (UniProt Q9H6Y2) 0.187, PNO1 C64 (UniProt Q9NRX1) 0.367, UNC45A C503 (UniProt Q9H3U1) 0.106, MDN1 C3492 (UniProt Q9NU22) 0.35, MBNL1 C43 (UniProt Q9NR56) 0.252, FARSB C76 (UniProt Q9NSD9) 0.183

log2 ratio of iodoacetamide-alkyne labeling, active:
BRD7 C338 (UniProt Q9NPI1) 1.01

Source: the supplement of paper PMC11006884
